According to publication PMC6327430:
These are yes or no findings as the source states them, for the method shown. Binding seen in cells or lysates may run through a third protein. Some results given as binding are weak or reduced against the parent protein; the word gives no strength.

Amino acid sequences for entries named in this document (tags omitted). Residues count along the entry.
UniProt P78527: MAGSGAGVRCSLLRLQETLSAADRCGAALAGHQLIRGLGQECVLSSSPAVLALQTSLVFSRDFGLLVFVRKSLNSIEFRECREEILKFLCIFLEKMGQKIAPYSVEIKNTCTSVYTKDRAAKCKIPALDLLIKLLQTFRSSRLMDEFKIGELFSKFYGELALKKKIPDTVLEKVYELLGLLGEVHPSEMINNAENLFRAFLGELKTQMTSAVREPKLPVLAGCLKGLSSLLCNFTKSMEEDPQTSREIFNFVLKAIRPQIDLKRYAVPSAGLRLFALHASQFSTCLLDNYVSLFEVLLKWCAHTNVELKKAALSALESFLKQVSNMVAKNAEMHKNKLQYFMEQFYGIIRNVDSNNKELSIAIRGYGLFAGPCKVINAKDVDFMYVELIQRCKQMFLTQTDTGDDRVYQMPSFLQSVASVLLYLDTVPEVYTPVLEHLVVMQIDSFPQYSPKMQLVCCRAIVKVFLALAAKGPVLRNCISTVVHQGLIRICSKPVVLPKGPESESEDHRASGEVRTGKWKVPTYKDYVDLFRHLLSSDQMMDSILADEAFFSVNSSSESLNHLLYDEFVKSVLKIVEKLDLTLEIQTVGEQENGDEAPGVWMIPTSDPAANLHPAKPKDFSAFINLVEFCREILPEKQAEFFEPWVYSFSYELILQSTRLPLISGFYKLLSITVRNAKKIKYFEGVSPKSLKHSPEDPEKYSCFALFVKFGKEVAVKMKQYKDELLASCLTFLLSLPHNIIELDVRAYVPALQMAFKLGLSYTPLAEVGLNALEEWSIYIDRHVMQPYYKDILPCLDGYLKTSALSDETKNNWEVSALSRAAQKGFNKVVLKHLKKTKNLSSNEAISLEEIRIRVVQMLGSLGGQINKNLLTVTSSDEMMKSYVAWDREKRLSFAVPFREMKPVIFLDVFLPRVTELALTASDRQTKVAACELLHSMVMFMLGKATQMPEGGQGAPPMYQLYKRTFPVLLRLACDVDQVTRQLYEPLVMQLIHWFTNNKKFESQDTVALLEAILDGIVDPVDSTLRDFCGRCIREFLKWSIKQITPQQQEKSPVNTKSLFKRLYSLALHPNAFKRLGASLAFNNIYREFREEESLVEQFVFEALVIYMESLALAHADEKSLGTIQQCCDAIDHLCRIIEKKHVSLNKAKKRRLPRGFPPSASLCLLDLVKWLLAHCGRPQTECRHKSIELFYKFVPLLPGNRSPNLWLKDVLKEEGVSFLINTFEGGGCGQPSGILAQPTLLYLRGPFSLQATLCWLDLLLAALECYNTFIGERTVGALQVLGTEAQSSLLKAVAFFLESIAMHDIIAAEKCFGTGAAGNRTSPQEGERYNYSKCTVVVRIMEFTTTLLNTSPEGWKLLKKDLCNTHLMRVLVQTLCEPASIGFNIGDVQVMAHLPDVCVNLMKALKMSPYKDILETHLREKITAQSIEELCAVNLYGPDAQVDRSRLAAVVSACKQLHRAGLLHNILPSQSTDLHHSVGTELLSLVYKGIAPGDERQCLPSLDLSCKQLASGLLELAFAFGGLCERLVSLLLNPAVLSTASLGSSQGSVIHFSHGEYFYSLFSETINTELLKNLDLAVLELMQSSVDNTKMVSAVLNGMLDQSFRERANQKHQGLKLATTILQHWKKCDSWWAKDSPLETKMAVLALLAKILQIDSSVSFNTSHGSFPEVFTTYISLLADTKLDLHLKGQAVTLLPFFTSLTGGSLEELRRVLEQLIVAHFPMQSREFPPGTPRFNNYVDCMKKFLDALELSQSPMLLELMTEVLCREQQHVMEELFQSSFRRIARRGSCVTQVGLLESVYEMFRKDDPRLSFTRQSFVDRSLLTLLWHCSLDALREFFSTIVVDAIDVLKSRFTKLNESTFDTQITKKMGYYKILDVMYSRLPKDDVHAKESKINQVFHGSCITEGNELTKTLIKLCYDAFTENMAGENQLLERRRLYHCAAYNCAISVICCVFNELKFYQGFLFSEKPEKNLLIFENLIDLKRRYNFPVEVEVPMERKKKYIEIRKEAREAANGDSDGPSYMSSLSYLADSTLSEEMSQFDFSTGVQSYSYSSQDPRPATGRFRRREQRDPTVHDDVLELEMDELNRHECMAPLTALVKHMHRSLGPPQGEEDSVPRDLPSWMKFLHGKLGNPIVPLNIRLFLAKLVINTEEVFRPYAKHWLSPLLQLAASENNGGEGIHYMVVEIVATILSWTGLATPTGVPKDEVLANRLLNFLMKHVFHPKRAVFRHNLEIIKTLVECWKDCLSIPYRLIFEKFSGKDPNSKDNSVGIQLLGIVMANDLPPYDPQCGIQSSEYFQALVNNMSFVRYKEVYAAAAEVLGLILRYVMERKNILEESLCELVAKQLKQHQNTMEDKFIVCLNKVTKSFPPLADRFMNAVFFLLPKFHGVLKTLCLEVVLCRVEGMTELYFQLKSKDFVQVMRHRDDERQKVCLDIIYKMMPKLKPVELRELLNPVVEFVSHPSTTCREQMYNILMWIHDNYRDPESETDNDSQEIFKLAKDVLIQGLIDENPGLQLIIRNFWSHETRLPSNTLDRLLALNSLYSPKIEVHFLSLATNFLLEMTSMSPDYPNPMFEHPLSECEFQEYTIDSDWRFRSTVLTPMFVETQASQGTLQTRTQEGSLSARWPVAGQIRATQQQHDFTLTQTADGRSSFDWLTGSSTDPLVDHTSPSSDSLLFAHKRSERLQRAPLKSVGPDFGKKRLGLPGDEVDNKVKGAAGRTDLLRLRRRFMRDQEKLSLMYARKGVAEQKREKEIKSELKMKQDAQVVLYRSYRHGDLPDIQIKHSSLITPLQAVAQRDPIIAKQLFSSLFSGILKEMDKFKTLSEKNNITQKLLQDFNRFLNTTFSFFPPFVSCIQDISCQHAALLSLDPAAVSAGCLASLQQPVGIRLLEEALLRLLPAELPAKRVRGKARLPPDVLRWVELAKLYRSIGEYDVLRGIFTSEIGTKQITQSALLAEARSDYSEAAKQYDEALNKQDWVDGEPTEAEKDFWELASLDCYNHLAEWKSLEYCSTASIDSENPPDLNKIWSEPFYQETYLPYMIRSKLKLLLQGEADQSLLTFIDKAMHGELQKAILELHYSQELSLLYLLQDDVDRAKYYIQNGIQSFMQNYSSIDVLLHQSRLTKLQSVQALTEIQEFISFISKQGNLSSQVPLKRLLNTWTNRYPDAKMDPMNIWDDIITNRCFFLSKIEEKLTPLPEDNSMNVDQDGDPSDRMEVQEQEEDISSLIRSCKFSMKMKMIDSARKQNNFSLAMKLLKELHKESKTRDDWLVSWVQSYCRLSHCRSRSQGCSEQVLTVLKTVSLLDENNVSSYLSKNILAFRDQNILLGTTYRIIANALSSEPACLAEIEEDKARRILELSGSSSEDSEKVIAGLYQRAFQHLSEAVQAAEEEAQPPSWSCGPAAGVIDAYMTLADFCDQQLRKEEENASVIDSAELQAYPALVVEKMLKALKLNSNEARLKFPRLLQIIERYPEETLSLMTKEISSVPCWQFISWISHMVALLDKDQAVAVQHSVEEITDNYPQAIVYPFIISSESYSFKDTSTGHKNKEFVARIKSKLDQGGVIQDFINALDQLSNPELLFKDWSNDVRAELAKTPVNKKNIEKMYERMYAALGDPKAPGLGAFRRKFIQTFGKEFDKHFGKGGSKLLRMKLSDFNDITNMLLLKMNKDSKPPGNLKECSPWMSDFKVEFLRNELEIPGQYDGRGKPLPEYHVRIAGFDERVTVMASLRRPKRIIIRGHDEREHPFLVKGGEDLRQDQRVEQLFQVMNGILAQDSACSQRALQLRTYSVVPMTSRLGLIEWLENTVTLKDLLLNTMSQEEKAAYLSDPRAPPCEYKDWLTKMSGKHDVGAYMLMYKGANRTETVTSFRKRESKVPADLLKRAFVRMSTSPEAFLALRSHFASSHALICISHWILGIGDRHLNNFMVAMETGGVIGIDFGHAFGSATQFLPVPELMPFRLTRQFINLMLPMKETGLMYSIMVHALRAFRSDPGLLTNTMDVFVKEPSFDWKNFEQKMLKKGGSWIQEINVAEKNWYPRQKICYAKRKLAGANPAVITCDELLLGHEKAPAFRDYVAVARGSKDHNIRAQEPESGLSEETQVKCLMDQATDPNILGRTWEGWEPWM
UniProt P18065, residues 36-325: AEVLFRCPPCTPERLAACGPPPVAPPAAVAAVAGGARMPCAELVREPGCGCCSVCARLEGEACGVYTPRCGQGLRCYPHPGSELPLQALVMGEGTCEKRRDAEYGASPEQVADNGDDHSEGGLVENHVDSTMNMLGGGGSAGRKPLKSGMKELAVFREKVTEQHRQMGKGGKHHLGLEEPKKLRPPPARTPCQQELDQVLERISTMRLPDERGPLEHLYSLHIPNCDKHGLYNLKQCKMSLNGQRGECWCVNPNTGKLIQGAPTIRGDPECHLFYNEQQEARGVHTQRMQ

Legend:
[1] = biological target: DNA-dependent protein kinase, catalytic subunit (human (endogenous in FLO1 and OE33)) (UniProt P78527); experiment: co-IP; endogenous proteins; antibodies against IGFBP2, EGFR or DNA-PKcs captured on protein G magnetic beads, incubated with lysate at 4 °C overnight, western blot; FLO1 and OE33 cells untreated or treated with acidic bile salts (ABS, pH 4, 200 μM) for 20 min and recovered 0.5 h; also FLO1 cells with IGFBP2 siRNA knockdown (EGFR IP); IgG as negative control
[2] = biological target: epidermal growth factor receptor (human (endogenous in FLO1 and OE33)) (UniProt P00533); experiment: as above

- binding [1]: binds
- binding [2]: binds
Substance: insulin-like growth factor binding protein 2 (from UniProt P18065 36-325)
